At least one structure is not confirmed: it was looked up by name or label, or the drawing left a doubt.
Test system: human eosinophils
Assay: Apoptosis and survival of purified human eosinophils in culture (cytology, blue trypan)
Format: cell-based
Protocol: A leukocyte-rich suspension is obtained after sedimentation of whole blood, anticoagulated in the presence of dextran T500 (4.5%). 35 ml of aliquots are added to 15 mi of Ficoll. After centrifugation (30 min, 1000×g) the mononucleated cells at the interface are eliminated. The pellet which contains neutrophils, eosinophils and the corpuscles is washed and subjected to an osmotic shock in order to eliminate the corpuscles. The magnetic cellular separation system (MACS; Miltenyi Biotec) is used to purify the eosinophils by negative selection [Hansel et al, 1991, J. Immunol. Meth. 145: 105-110]. Magnetic particles anti-CD16 (1 μl/1×10^6 cells) are added to the suspension of neutrophils and eosinophils at 4° C. and kept at this temperature for 40 minutes with several placement gain in solution. The suspension is then added at the summit of the separation column in the presence of a magnetic field, the tap open at the base. 30 ml of PBS/FCS is passed through the column and the effluent is recovered. […]
The freshly purified eosinophils are again placed in suspension (1.5-3×10^5 cells per ml) in RPMI 1640 (Gibco BRL) supplemented with 0.1 mM non essential amino acids, 100 U/ml of penicillin, 10 μg of streptomycine, 10 mM of HEPES, 2 mM of glutamine and 10% FCS. […] The cellular viability and the percentage of apoptotic eosinophils are counted at 24 hrs and 48 hrs with the aid of the methods below. […]

C[C@@H]1C[C@H]2[C@@H]3CCC4=CC(=O)C=C[C@]4(C)[C@@]3(F)[C@@H](O)C[C@]2(C)[C@@]1(O)C(=O)CO [Dexamethasone, reference compound]
Effect on apoptosis of eosinophils (FIG. 3) (at the higher concentrations of IL-5 used): no effect on apoptosis
Induction of the apoptosis of eosinophils (general statement): powerful inductor

From patent US6423703B1, “Use of a porphyrin for producing a medicine reducing the number of eosinophils” (Sephra S.A.R.L., priority 1998, dated 2002)
